Laboratory results from PMC12705663.

Protein sequences, listed by entry. Tags and fused reporters are not part of them. Residues count along the entry.
UniProt P22607, residues 23-806: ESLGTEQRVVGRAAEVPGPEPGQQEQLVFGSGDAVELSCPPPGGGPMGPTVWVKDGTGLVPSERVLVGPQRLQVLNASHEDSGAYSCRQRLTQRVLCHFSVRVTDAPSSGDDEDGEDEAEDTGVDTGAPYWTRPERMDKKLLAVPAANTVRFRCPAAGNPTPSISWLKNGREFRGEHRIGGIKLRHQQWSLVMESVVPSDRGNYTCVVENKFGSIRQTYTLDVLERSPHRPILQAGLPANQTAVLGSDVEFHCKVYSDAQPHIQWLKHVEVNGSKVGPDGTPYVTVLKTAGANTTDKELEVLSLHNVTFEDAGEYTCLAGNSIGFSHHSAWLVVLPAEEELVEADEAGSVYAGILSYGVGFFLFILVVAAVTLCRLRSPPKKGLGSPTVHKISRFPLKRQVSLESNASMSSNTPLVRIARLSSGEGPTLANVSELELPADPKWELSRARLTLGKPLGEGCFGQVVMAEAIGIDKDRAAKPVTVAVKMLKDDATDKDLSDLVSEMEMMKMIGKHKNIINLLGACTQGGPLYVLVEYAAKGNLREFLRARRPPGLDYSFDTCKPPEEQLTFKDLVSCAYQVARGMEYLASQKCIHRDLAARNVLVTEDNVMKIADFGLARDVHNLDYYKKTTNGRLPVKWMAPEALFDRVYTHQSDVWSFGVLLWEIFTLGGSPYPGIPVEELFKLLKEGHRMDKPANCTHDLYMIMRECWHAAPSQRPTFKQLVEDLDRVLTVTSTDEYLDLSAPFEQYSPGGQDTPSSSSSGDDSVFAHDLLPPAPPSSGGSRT
UniProt P21802, residues 22-821: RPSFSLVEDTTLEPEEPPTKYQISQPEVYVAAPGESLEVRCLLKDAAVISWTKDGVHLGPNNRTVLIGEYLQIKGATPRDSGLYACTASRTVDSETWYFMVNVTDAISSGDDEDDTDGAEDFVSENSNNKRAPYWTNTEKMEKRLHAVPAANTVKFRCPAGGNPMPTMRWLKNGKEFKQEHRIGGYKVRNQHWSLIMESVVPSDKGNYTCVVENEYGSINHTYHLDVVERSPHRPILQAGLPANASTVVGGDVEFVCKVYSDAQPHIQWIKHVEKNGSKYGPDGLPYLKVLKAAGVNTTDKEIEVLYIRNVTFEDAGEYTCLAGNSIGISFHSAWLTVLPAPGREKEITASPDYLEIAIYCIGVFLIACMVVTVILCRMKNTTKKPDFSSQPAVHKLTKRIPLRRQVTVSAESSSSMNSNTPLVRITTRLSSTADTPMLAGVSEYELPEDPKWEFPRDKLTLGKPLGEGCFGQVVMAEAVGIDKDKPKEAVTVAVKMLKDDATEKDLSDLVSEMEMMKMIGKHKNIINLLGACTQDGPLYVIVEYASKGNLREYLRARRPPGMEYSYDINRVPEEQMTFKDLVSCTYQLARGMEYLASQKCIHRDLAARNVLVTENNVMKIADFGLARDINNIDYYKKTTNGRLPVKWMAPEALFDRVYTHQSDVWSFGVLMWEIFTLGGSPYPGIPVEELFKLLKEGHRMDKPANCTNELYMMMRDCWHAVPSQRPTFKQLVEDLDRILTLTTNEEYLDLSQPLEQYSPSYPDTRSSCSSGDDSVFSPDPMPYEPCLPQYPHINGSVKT

B1: fibroblast receptor substrate 2 (protein, UniProt Q8WU20 1-508)
chain: MGSCCSCPDKDTVPDNHRNKFKVINVDDDGNELGSGIMELTDTELILYTRKRDSVKWHYLCLRRYGYDSNLFSFESGRRCQTGQGIFAFKCARAEELFNMLQEIMQNNSINVVEEPVVERNNHQTELEVPRTPRTPTTPGFAAQNLPNGYPRYPSFGDASSHPSSRHPSVGSARLPSVGEESTHPLLVAEEQVHTYVNTTGVQEERKNRTSVHVPLEARVSNAESSTPKEEPSSIEDRDPQILLEPEGVKFVLGPTPVQKQLMEKEKLEQLGRDQVSGSGANNTEWDTGYDSDERRDAPSVNKLVYENINGLSIPSASGVRRGRLTSTSTSDTQNINNSAQRRTALLNYENLPSLPPVWEARKLSRDEDDNLGPKTPSLNGYHNNLDPMHNYVNTENVTVPASAHKIEYSRRRDCTPTVFNFDIRRPSLEHRQLNYIQVDLEGGSDSDNPQTPKTPTTPLPQTPTRRTELYAVIDIERTAAMSNLQKALPRDDGTSRKTRHNSTDLPM

molecular target: FGFR1 WT-BirA*-Flag (human) (UniProt P11362); assay: proximity labelling; BioID-MS: FGFR1-BirA*-Flag baits in Flp-In T-REx HEK293 cells, tetracycline and 50 uM biotin; biotinylated preys isolated by streptavidin pull-down and identified by MS; SAINTexpress AvgP >= 0.95, AvgSpec >= 5

Molecule | binding
FGFR3 (from UniProt P22607 23-806) (receptor) | binds
protein tyrosine phosphatase non-receptor type 11 (from UniProt Q06124 1-593) (enzyme) | binds
FGFR2 (from UniProt P21802 22-821) (receptor) | binds
B1 | binds

These are yes or no findings as the source states them, for the method shown. Binding seen in cells or lysates may run through a third protein. A yes stands for co-enrichment or nearness to the bait. Other partners may have been found.
